Values from PubChem BioAssay AID1224828 (NIAID, 2016).
Shown is one part, drawn at random, of about 17,000 reagents. Of all reagents, 762 (4.5%) are marked active. 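Active calls include both raised and lowered p65 entry, mostly lowered; wells with fewer than 50 cells lack a z-score.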 Raw values vary from plate to plate and are shown uncorrected. Some reagents were tested in more than one well and are listed for each.

Assay: 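Regulators linking TLR4 signalling to p65 nuclear translocation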 (primary screen)
Cell system: mouse RAW264.7 G9 macrophage reporter cells (GFP-p65, Tnf promoter-mCherry)
Knock-down reagent: siRNA pool against mouse genes, 100 nM
Timing: 2 days siRNA transfection, then 40 min LPS before fixation
Conditions: LPS (Salmonella minnesota R595) at 10 ng/ml
Measured: 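Microscopy ratio of nuclear to perinuclear-ring GFP-p65 signal, scaled to the plate median; gene score is the average of two replicate robust z-scores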
Reading the numbers: p65 translocation robust z-score: higher = more nuclear NF-kappaB p65 after LPS than the plate median; nuclear/cytoplasmic p65 ratio: higher = more nuclear NF-kappaB p65
Hit rule: 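Active if robust z is above 3.3 (negative regulators) or below -1.56, the Tlr4 control median (positive regulators); activity score 50 or more; control wells not called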
Calls: active = hit (p65 shift raised or lowered); inactive = no clear change

p65 translocation robust z-score | nuclear/cytoplasmic p65 ratio, rep 1 | nuclear/cytoplasmic p65 ratio, rep 2 | low cell count flag | outcome | gene symbol
-0.87 | 1.38 | 1.28 | enough cells to score | inactive | Igfbp3
0.29 | 1.6 | 1.92 | enough cells to score | inactive | Rcsd1
-0.12 | 1.56 | 1.44 | enough cells to score | inactive | Rab25
-0.06 | 1.54 | 1.29 | enough cells to score | inactive | Cdon
-0.33 | 1.45 | 1.5 | enough cells to score | inactive | Slc4a4
– | 1.53 | 1.24 | fewer than 50 cells per well; well left out of scoring | inactive | Rab12
0.26 | 1.57 | 1.61 | enough cells to score | inactive | Smarcd2
-1.17 | 1.53 | 1.22 | enough cells to score | inactive | Prkaa1
– | 1.42 | 1.11 | fewer than 50 cells per well; well left out of scoring | inactive | Trappc3
– | 1.11 | 1.45 | fewer than 50 cells per well; well left out of scoring | inactive | Sh3bp5l
-0.13 | 1.56 | 1.44 | enough cells to score | inactive | Rpe65
– | 1.48 | 1.72 | fewer than 50 cells per well; well left out of scoring | inactive | Or7e174
1.53 | 1.66 | 1.8 | enough cells to score | inactive | Slc17a5
– | 1.26 | 1.6 | fewer than 50 cells per well; well left out of scoring | inactive | Crct1
-1.83 | 1.36 | 1.13 | enough cells to score | active | Igfbp5
0.38 | 1.58 | 1.82 | enough cells to score | inactive | Tmem179
0.12 | 1.36 | 1.5 | enough cells to score | inactive | Gstcd
0.73 | 1.57 | 1.53 | enough cells to score | inactive | Phf2
– | 1.35 | 1.12 | fewer than 50 cells per well; well left out of scoring | inactive | Or6c2b
-2.49 | 1.23 | 1.27 | enough cells to score | active | Or1q1
5.52 | 1.45 | 3.25 | enough cells to score | active | Gemin2
2.24 | 1.85 | 1.27 | enough cells to score | inactive | Six1
0.74 | 1.34 | 1.31 | enough cells to score | inactive | Vmn1r15
– | 1.11 | 1.17 | fewer than 50 cells per well; well left out of scoring | inactive | Fam131a

Next part, starting with the last 5 of the part before.
p65 translocation robust z-score | nuclear/cytoplasmic p65 ratio, rep 1 | nuclear/cytoplasmic p65 ratio, rep 2 | low cell count flag | outcome | gene symbol
-2.49 | 1.23 | 1.27 | enough cells to score | active | Or1q1
5.52 | 1.45 | 3.25 | enough cells to score | active | Gemin2
2.24 | 1.85 | 1.27 | enough cells to score | inactive | Six1
0.74 | 1.34 | 1.31 | enough cells to score | inactive | Vmn1r15
– | 1.11 | 1.17 | fewer than 50 cells per well; well left out of scoring | inactive | Fam131a
-0.65 | 1.32 | 1.41 | enough cells to score | inactive | Krtap13-1
0.74 | 1.33 | 1.39 | enough cells to score | inactive | Banf2
– | 1.43 | 1.18 | fewer than 50 cells per well; well left out of scoring | inactive | Igsf8
-1.83 | 1.22 | 1.22 | enough cells to score | active | Abhd17b
0.46 | 1.45 | 1.54 | enough cells to score | inactive | Nsun4
0.2 | 1.55 | 1.29 | enough cells to score | inactive | Naa80
-0.77 | 1.4 | 1.23 | enough cells to score | inactive | Dsg4
-0.88 | 1.57 | 1.27 | enough cells to score | inactive | Mapk8ip2
0.78 | 1.62 | 1.91 | enough cells to score | inactive | Ecpas
0.75 | 1.51 | 1.6 | enough cells to score | inactive | Krabd3
– | 1.19 | 1.69 | fewer than 50 cells per well; well left out of scoring | inactive | Supt6
-0.12 | 1.58 | 1.5 | enough cells to score | inactive | Arl6ip6
1.74 | 1.65 | 1.33 | enough cells to score | inactive | Tex264
0.63 | 1.74 | 1.68 | enough cells to score | inactive | Bad
– | 1.34 | 1.52 | fewer than 50 cells per well; well left out of scoring | inactive | Zcchc14
-0.32 | 1.41 | 1.16 | enough cells to score | inactive | Rpl22
-0.89 | 1.44 | 1.36 | enough cells to score | inactive | Pomk
– | 1.24 | 1.18 | fewer than 50 cells per well; well left out of scoring | inactive | Pomk
0.33 | 1.5 | 1.62 | enough cells to score | inactive | Rab7
0.08 | 1.47 | 1.41 | enough cells to score | inactive | Jun
1.82 | 1.69 | 1.36 | enough cells to score | inactive | Or52b1
-0.04 | 1.39 | 1.45 | enough cells to score | inactive | Aff4
5.11 | 1.95 | 2.14 | enough cells to score | active | Zcchc3
– | 1.51 | 1.43 | fewer than 50 cells per well; well left out of scoring | inactive | Kynu
-0.28 | 1.51 | 1.28 | enough cells to score | inactive | Pebp1
– | 1.55 | 1.12 | fewer than 50 cells per well; well left out of scoring | inactive | Tcp11
-0.64 | 1.25 | 1.17 | enough cells to score | inactive | Pgd
1.75 | 1.87 | 1.43 | enough cells to score | inactive | Dmap1
– | 1.56 | 1.33 | fewer than 50 cells per well; well left out of scoring | inactive | Padi3
1 | 1.59 | 1.5 | enough cells to score | inactive | Usp17la
– | 2.34 | 1.19 | fewer than 50 cells per well; well left out of scoring | inactive | Parp16
-0.76 | 1.36 | 1.84 | enough cells to score | inactive | Mettl27
-0.36 | 1.66 | 1.38 | enough cells to score | inactive | Or5c1
-0.63 | 1.33 | 1.18 | enough cells to score | inactive | Zfp65
0.89 | 1.46 | 1.3 | enough cells to score | inactive | Gigyf2
